The supplement of paper PMC10849652
Some of the results follow.

The chains behind the UniProt entries cited, without tags or fusion partners. Where a name states a change or a piece, a line headed by the entry shows the natural chain unless it says otherwise.
UniProt Q9UJA5: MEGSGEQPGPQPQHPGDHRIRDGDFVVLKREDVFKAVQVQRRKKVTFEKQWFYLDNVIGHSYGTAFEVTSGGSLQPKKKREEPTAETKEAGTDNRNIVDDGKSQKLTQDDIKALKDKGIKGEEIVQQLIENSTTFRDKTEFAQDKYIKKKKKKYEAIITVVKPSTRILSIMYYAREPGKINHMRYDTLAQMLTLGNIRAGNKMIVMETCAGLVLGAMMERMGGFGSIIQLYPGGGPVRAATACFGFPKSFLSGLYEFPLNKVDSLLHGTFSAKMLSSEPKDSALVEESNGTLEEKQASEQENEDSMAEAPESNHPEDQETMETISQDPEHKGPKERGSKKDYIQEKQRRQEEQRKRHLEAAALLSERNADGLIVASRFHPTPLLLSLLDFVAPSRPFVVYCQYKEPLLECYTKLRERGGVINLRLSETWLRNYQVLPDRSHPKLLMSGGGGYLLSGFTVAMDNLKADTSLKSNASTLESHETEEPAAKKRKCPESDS
UniProt Q14669: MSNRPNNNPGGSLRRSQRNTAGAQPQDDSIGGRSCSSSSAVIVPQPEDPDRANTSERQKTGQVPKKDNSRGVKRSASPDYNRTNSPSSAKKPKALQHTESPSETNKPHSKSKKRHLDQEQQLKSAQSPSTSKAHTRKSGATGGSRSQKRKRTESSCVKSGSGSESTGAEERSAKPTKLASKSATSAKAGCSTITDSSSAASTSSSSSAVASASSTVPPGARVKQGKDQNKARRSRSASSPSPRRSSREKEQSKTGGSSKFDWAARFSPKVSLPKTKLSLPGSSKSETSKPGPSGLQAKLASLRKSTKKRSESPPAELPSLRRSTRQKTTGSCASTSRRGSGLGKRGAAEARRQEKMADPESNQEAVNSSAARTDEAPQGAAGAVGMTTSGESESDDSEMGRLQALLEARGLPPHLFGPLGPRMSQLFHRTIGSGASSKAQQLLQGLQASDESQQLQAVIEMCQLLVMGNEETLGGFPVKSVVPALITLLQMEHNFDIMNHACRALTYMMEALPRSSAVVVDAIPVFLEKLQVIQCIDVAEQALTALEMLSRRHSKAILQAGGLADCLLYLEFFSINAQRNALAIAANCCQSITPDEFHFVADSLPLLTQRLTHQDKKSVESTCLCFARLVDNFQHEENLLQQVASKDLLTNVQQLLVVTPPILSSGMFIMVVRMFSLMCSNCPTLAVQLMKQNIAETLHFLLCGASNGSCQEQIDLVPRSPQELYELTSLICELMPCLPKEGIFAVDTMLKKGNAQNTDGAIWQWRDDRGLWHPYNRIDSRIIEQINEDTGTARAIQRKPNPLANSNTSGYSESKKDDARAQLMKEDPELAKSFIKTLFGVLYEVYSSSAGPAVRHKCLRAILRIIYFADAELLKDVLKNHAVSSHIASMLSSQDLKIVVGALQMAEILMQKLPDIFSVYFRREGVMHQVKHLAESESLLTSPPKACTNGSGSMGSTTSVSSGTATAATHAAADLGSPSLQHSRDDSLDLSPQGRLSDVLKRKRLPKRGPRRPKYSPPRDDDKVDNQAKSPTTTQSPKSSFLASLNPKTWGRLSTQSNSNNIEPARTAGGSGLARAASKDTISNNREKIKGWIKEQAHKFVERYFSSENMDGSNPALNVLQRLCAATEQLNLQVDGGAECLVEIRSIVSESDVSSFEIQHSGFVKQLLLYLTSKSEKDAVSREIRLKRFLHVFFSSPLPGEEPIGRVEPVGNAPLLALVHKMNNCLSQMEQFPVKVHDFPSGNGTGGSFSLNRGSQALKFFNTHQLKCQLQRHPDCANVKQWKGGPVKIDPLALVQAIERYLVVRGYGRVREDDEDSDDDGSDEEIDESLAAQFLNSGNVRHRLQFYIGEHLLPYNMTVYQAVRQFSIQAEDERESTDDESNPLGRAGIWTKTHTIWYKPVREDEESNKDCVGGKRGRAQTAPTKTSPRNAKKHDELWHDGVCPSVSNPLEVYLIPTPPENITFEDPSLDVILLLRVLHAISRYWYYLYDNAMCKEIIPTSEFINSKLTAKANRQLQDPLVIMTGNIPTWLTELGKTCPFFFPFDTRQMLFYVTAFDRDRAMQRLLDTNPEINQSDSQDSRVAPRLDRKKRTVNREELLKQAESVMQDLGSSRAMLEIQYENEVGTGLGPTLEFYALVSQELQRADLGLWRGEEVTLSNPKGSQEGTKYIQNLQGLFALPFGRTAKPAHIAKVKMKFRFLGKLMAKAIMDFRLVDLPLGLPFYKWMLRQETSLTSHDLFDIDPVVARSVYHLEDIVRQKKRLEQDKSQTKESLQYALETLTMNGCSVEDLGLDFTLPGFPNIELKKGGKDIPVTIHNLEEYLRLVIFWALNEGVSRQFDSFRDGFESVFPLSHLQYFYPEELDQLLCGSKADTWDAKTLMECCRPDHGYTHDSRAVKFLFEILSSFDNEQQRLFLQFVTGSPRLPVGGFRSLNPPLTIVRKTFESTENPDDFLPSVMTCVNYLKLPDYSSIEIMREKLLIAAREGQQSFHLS
UniProt Q9UJT2: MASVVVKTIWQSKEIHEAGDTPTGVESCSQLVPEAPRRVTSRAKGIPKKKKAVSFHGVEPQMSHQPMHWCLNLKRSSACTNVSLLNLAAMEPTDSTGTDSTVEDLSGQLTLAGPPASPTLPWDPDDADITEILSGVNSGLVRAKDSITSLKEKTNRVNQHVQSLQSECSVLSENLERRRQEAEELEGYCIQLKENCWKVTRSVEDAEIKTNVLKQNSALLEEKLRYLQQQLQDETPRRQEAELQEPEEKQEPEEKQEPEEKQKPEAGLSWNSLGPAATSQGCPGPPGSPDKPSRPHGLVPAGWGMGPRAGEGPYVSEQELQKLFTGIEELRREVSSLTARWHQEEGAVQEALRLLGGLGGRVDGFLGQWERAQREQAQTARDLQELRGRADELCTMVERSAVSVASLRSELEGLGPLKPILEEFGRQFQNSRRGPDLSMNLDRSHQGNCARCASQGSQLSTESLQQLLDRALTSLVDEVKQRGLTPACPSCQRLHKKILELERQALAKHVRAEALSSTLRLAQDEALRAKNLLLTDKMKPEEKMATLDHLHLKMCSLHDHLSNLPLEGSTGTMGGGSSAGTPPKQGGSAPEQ
UniProt Q6PGP7, whole entry, looked up: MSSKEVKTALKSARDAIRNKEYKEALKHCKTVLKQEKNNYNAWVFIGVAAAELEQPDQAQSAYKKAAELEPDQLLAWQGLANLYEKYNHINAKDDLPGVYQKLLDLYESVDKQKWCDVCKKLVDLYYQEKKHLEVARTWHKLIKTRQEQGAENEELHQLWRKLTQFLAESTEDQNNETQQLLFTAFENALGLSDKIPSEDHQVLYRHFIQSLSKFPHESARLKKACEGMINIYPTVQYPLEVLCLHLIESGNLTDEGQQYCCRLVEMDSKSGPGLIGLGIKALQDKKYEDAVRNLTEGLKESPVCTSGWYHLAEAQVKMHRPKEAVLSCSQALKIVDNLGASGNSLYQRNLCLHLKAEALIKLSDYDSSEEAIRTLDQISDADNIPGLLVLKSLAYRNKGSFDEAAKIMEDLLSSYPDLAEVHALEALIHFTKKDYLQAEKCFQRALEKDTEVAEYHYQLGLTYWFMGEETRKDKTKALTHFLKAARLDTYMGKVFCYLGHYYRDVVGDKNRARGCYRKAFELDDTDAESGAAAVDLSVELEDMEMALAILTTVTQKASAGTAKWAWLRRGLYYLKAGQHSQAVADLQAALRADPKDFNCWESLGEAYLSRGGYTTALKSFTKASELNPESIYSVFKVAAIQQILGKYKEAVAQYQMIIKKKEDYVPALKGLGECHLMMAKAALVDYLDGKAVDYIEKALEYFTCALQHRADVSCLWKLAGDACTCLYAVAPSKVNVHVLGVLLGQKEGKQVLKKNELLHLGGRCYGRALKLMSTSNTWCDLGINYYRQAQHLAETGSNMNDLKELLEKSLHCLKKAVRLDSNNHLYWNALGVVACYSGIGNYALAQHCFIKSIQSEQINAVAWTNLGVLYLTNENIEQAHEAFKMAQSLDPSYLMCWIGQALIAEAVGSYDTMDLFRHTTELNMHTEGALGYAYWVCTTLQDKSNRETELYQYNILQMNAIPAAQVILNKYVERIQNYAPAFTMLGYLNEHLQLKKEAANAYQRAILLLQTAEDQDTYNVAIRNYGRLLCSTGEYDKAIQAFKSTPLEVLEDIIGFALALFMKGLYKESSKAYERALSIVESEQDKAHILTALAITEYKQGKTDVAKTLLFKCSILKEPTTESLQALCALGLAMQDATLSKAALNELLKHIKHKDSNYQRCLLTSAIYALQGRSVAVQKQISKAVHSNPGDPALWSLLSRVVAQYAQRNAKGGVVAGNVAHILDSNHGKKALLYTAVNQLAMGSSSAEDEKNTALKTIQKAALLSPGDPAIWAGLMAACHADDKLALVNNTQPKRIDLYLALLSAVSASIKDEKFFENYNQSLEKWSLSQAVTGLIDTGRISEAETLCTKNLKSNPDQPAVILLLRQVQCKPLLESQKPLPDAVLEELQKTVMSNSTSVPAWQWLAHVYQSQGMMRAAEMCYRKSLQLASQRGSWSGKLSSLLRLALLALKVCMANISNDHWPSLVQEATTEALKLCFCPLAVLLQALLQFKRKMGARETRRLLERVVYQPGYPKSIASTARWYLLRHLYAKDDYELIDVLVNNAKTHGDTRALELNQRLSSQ
UniProt Q15631: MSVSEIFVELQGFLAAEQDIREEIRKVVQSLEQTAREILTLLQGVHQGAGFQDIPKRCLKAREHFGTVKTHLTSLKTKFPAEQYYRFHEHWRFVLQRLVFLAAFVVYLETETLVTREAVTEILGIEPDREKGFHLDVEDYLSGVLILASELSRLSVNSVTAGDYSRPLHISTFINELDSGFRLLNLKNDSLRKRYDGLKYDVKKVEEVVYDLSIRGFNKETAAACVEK
UniProt O75382: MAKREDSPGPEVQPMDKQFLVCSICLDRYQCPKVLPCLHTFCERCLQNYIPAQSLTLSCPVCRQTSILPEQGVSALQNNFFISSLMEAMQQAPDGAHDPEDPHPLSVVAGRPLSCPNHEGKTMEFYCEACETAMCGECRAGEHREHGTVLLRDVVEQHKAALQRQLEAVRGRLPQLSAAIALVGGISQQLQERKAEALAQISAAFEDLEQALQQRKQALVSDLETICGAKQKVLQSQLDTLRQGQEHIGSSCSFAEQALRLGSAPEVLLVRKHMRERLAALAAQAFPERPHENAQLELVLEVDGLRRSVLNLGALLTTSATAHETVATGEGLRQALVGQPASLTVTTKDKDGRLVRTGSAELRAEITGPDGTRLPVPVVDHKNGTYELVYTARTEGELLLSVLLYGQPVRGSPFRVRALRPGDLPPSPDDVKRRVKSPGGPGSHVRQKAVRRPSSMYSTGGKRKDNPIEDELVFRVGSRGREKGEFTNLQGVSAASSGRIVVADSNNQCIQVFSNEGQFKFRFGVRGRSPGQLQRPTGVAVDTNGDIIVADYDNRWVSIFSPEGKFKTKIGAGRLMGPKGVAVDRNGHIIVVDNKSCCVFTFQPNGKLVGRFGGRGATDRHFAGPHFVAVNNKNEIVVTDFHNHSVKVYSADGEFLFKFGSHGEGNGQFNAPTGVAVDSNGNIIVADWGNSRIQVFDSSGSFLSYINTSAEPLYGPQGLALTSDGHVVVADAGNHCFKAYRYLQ
UniProt Q8WV44: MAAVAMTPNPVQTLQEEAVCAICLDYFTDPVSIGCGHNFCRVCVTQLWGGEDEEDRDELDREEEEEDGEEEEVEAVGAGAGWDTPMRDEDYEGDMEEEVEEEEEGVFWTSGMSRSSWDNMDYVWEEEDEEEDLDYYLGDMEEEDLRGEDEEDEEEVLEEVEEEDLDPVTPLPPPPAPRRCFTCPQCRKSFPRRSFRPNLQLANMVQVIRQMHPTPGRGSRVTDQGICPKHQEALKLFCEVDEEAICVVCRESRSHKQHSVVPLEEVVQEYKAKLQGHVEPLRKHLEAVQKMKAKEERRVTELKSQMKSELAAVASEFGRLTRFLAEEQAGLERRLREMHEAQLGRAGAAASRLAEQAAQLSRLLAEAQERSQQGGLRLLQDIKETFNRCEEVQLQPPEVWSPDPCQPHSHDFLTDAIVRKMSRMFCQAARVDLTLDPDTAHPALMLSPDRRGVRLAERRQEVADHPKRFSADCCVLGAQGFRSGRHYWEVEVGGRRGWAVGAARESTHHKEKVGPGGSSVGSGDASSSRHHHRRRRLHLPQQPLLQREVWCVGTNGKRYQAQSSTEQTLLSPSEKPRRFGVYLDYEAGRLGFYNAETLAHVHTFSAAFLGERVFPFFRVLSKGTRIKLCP

Key:
Test in all cases: log2 fold change, soluble protein after heating vs DMSO (PISA); higher = thermal stabilisation; K562 lysate, 10 uM; active = over 0.2 and 3.5 SD of the protein, either way, in both replicates (recomputed)
vemurafenib = compound: CCCS(=O)(=O)Nc1ccc(F)c(C(=O)c2c[nH]c3ncc(-c4ccc(Cl)cc4)cc23)c1F [vemurafenib]
Summary of the method: (§1)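 To prepare the extract, K562 pellets were dounce-homogenised in PBS pH 7.4 with 1 mM MgCl2, giving crude material at 1 mg/mL protein. This was treated with 10 μM compound for 30 min, then heated in aliquots for 3 min over 48°C-58°C before pooling and addition of NP-40 to 0.5% at 4°C. Centrifugation at 21,000xg for 90 min left soluble protein in the supernatant, which TMTpro 16plex LC-MS/MS quantified with equalised channel sums. Results are log-two fold changes in thermal stability compared with solvent controls, from duplicates.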

[1] = compound: CCCS(=O)(=O)Nc1ccc(F)c(C(=O)c2c[nH]c3ncc(Cl)cc23)c1F
Summary of the method: as §1

barasertib = compound: CCN(CCCOc1ccc2c(Nc3cc(CC(=O)Nc4cccc(F)c4)[nH]n3)ncnc2c1)CCOP(=O)(O)O [barasertib]
Summary of the method: as §1

[2] = compound: CC[C@@H]1C(=O)N(C)c2cnc(Nc3ccc(C(=O)NC4CCN(C)CC4)cc3OC)nc2N1C1CCCC1
Summary of the method: as §1

volasertib = compound: CC[C@@H]1C(=O)N(C)c2cnc(Nc3ccc(C(=O)N[C@H]4CC[C@H](N5CCN(CC6CC6)CC5)CC4)cc3OC)nc2N1C(C)C [volasertib]
Summary of the method: as §1

[3] = compound: CCn1c(C(=O)N(C2CC2)C2CC2)cc2c3c(ncn3C)c(Nc3cc(C)n(C)n3)nc21
Summary of the method: as §1

[4] = compound: CCn1cc(-c2ccnc3[nH]c(-c4cccc(CN(C)C)c4)cc23)c(-c2ccc(NC(=O)N(C)C)cc2)n1
Summary of the method: as §1

[5] = compound: CN1CCC(CNc2ccc3ncc(-c4cccc(OC(F)(F)F)c4)n3n2)CC1
Summary of the method: as §1

saracatinib = compound: CN1CCN(CCOc2cc(OC3CCOCC3)c3c(Nc4c(Cl)ccc5c4OCO5)ncnc3c2)CC1 [saracatinib]
Summary of the method: as §1

sotrastaurin = compound: CN1CCN(c2nc(C3=C(c4c[nH]c5ccccc45)C(=O)NC3=O)c3ccccc3n2)CC1 [sotrastaurin]
Summary of the method: as §1

alvocidib = compound: CN1CC[C@H](c2c(O)cc(O)c3c(=O)cc(-c4ccccc4Cl)oc23)[C@H](O)C1 [alvocidib]
Summary of the method: as §1

Tubastatin A = compound: CN1CCc2c(c3ccccc3n2Cc2ccc(C(=O)NO)cc2)C1 [Tubastatin A]
Summary of the method: as §1

[6] = compound: CNC(=O)C1=CC=CC=C1NC2=NC(=NC=C2Cl)NC3=C(C=C(C=C3)N4CCOCC4)OC
Summary of the method: as §1

defactinib = compound: CNC(=O)c1ccc(Nc2ncc(C(F)(F)F)c(NCc3nccnc3N(C)S(C)(=O)=O)n2)cc1 [defactinib]
Summary of the method: as §1

[7] = compound: CNc1nc(-c2ccc3c(N)n[nH]c3c2)cc(N2C[C@@H](C(=O)NC3CCCCC3)CC[C@H]2C)n1
Summary of the method: as §1

encorafenib = compound: COC(=O)N[C@@H](C)CNc1nccc(-c2cn(C(C)C)nc2-c2cc(Cl)cc(NS(C)(=O)=O)c2F)n1 [encorafenib]
Summary of the method: as §1

[8] = compound: COC(=O)[C@H](CCSC)NC(=O)C1=C(C=C(C=C1)NC[C@H](CS)N)C2=CC=CC=C2
Summary of the method: as §1

alisertib = compound: COc1cc(Nc2ncc3c(n2)-c2ccc(Cl)cc2C(c2c(F)cccc2OC)=NC3)ccc1C(=O)O [alisertib]
Summary of the method: as §1

[9] = compound: COc1cc2nc(-c3cc(F)ccc3O)nc(N[C@@H]3CNC[C@H]3C(C)(C)O)c2cc1OC
Summary of the method: as §1

gefitinib = compound: COc1cc2ncnc(Nc3ccc(F)c(Cl)c3)c2cc1OCCCN1CCOCC1 [gefitinib]
Summary of the method: as §1

Measured: log2 fold change

TRIP10 (UniProt Q15642)
inactive: vemurafenib 0.112 | [1] -0.012 | barasertib 0.007 | [2] -0.026 | volasertib -0.017 | [3] 0.002 | [4] -0.096 | [5] 0.035 | saracatinib 0.011 | sotrastaurin -0.001 | alvocidib -0.012 | Tubastatin A -0.012 | [6] -0.016 | defactinib -0.01 | [7] 0.013 | encorafenib -0.003 | [8] 0.056 | alisertib 0.025 | [9] -0.003 | gefitinib -0.027

TRMT6 (UniProt Q9UJA5)
inactive: vemurafenib -0.006 | [1] 0.011 | barasertib -0.024 | [2] 0.007 | volasertib 0.001 | [3] 0.004 | [4] -0.033 | [5] 0.059 | saracatinib 0.009 | sotrastaurin -0.034 | alvocidib 0.011 | Tubastatin A -0.005 | [6] -0.02 | defactinib 0.007 | [7] -0.019 | encorafenib 0.018 | [8] 0.03 | alisertib 0.029 | [9] 0.015 | gefitinib -0.046

TRIP12 isoform 2 (UniProt Q14669)
inactive: vemurafenib 0.014 | [1] 0.068 | barasertib 0.038 | [2] -0.001 | volasertib -0.028 | [3] 0.091 | [4] -0.031 | [5] 0.036 | saracatinib -0.007 | sotrastaurin 0.013 | alvocidib 0.018 | Tubastatin A -0.035 | [6] 0.002 | defactinib 0.045 | [7] -0.17 | encorafenib 0.049 | [8] -0.018 | alisertib 0.019 | [9] -0.122 | gefitinib 0.005

TRIOBP (UniProt Q9H2D6)
inactive: vemurafenib 0.049 | [1] 0.043 | barasertib 0.024 | [2] -0.014 | volasertib -0.059 | [3] 0.003 | [4] -0.027 | [5] -0.031 | saracatinib 0.063 | sotrastaurin 0.045 | alvocidib 0.019 | Tubastatin A 0.013 | [6] 0.119 | defactinib 0 | [7] -0.068 | encorafenib 0.009 | [8] 0.085 | [9] -0.051

TSKS (UniProt Q9UJT2)
inactive: vemurafenib -0.078 | [2] 0.068 | [3] -0.062 | [4] 0.191 | [5] -0.142 | saracatinib -0.021 | sotrastaurin -0.016 | alvocidib 0 | Tubastatin A -0.136 | [6] -0.056 | defactinib 0.135 | [7] 0.016 | encorafenib 0.128 | [8] -0.245

TRAF7 (UniProt Q6Q0C0)
inactive: vemurafenib -0.07 | [2] 0.053 | [3] 0.012 | [4] -0.065 | [5] 0.191 | saracatinib 0.132 | sotrastaurin -0.044 | alvocidib 0.058 | Tubastatin A -0.008 | defactinib 0.141 | [7] 0.025 | encorafenib 0.015 | [8] -0.11 | alisertib -0.05 | gefitinib -0.099

TTC13 (UniProt Q8NBP0)
inactive: vemurafenib 0.006 | [1] 0.141 | barasertib 0.157 | volasertib -0.181 | [3] -0.173 | sotrastaurin 0.019 | Tubastatin A 0.013 | defactinib -0.225 | [9] 0.275

TTI1 (UniProt O43156)
inactive: vemurafenib 0.006 | [1] -0.012 | barasertib 0.055 | [2] -0.093 | volasertib -0.026 | [3] 0.006 | [4] -0.074 | [5] 0.019 | saracatinib -0.003 | sotrastaurin 0.006 | alvocidib 0 | Tubastatin A -0.163 | [6] 0.015 | defactinib 0.022 | [7] -0.035 | encorafenib 0.022 | [8] 0.026 | alisertib -0.013 | [9] -0.011 | gefitinib -0.016

TTC37 (UniProt Q6PGP7)
inactive: vemurafenib 0.053 | [1] -0.068 | barasertib 0.018 | volasertib 0.011 | [3] 0.045 | saracatinib 0.013 | sotrastaurin -0.019 | Tubastatin A 0.072 | [6] -0.13 | defactinib -0.061 | [7] 0.185 | alisertib 0.032 | [9] 0.043 | gefitinib 0.081

TSN (UniProt Q15631)
inactive: vemurafenib 0.019 | [1] 0.005 | barasertib 0.012 | [2] 0.029 | volasertib 0.039 | [3] -0.01 | [4] -0.088 | [5] 0.082 | saracatinib 0.005 | sotrastaurin -0.02 | alvocidib -0.021 | Tubastatin A 0.047 | [6] -0.002 | defactinib -0.03 | [7] 0.048 | encorafenib -0.015 | [8] -0.014 | alisertib 0.031 | [9] 0.032 | gefitinib 0.019

Reprinted from the entries so far (2 entries):
TTI1 (UniProt O43156)
inactive: vemurafenib 0.006 | [1] -0.012 | barasertib 0.055 | [2] -0.093 | volasertib -0.026 | [3] 0.006 | [4] -0.074 | [5] 0.019 | saracatinib -0.003 | sotrastaurin 0.006 | alvocidib 0 | Tubastatin A -0.163 | [6] 0.015 | defactinib 0.022 | [7] -0.035 | encorafenib 0.022 | [8] 0.026 | alisertib -0.013 | [9] -0.011 | gefitinib -0.016

TTC37 (UniProt Q6PGP7)
inactive: vemurafenib 0.053 | [1] -0.068 | barasertib 0.018 | volasertib 0.011 | [3] 0.045 | saracatinib 0.013 | sotrastaurin -0.019 | Tubastatin A 0.072 | [6] -0.13 | defactinib -0.061 | [7] 0.185 | alisertib 0.032 | [9] 0.043 | gefitinib 0.081

(next part)

TRIM3 (UniProt O75382)
inactive: vemurafenib 0.13 | [1] -0.085 | [2] -0.029 | volasertib 0.09 | [6] 0.06 | defactinib -0.095 | encorafenib 0.034 | [8] 0.041 | [9] 0.069

TRIM41 (UniProt Q8WV44)
inactive: vemurafenib -0.059 | [1] -0.092 | [2] 0.017 | volasertib -0.075 | [4] 0.16 | [5] -0.141 | saracatinib -0.118 | sotrastaurin 0.052 | alvocidib 0.065 | defactinib -0.035 | [7] -0.126 | encorafenib -0.02 | [8] 0.098 | [9] 0.001
